Measurements taken from PubChem BioAssay AID493014 (National Center for Advancing Translational Sciences (NCATS), 2011).
This is one part of the list. Shown are side measurements of this screen, not its main read-out; they come without a call. The list favours compounds with an active or inconclusive main result. The note in brackets gives the kind of curve behind each potency; many fits are weak.

Test: qHTS Assay to Find Inhibitors of Chronic Active B-Cell Receptor Signaling
Conditions: ABC-DLBCL IkBa-CBG/CBR reporter, luminescence ratio (green luciferase fused to IkBa over red control in TMD8 lymphoma cells), 4 h
In short: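 Doxycycline induced both beetle luciferases in TMD8 lymphoma cells; IKK-driven degradation limits the IkappaBalpha-fused green signal, while red luminescence normalises for cell number and nonspecific effects. Compounds tested up to 46 uM, 4 hrs.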

[1] = measured here: CBR red luminescence, cell number
[2] = measured here: IkBa-CBG green luminescence

**Q.** Which AC50 [1] does the source give for `COc1ccc(Cl)cc1S(=O)(=O)N1CCN(C)CC1` here?
**A.** 1.46 µM [falling, partial curve, poor fit]

**Q.** Which AC50 [1] does the source give for `CC12CCC(=O)N1C(C(=O)Nc1nc(-c3ccccc3Cl)cs1)CS2` (stereo unspecified) here?
**A.** 18.4 µM [falling, partial curve]

**Q.** For `Cc1ccc(C(=O)Nc2ccc3c(c2)CCC3)cc1`, which AC50 [1] is on record?
**A.** 3.98 µM [rising, single point]

**Q.** Which AC50 [2] does the source give for `COc1ccc(-c2nn(CCC(=O)O)cc2/C=C2\SC(N)=NC2=O)cc1OC` here?
**A.** 2.91 µM [rising, partial curve, poor fit]

**Q.** With `Cc1cccc(NC(=O)c2ccc([N+](=O)[O-])o2)c1` as the molecule, how does the AC50 [1] read?
**A.** 11.2 µM [falling, single point]

**Q.** For `CC(C)COc1ccc(C(=O)Nc2ccc(NC(=O)c3ccco3)c(Cl)c2)cc1`, which AC50 [1] is on record?
**A.** 0.58 µM [falling, full curve]

**Q.** With `CCOc1ccc(NC(=O)/C=C/c2ccccc2)c([N+](=O)[O-])c1` as the molecule, how does the AC50 [1] read?
**A.** 5.8 µM [rising, full curve]

**Q.** With `COCCNC(=O)Cc1c(C)c2c(cc(C)c3c(C)coc32)oc1=O` as the molecule, how does the AC50 [1] read?
**A.** 3.98 µM [rising, partial curve, poor fit]

**Q.** With `Cn1c(=O)n(Cc2ccccc2Cl)c2ccccc21` as the molecule, how does the AC50 [1] read?
**A.** 7.94 µM [rising, partial curve, poor fit]

**Q.** What about the AC50 [2] of the same molecule?
**A.** 10 µM [falling, partial curve, poor fit]

**Q.** With `COc1ccc(C(CNC(=O)c2ccc(C)c(S(=O)(=O)Nc3ccccc3OC)c2)N2CCCC2)cc1` (stereo unspecified) as the molecule, how does the AC50 [1] read?
**A.** 8.91 µM [falling, partial curve]

**Q.** Which AC50 [1] does the source give for `Cc1cc(O)c(C(C)C)cc1NC1=NS(=O)(=O)c2ccccc21` here?
**A.** 0.58 µM [falling, partial curve, poor fit]

**Q.** With `Cn1c(N)c(C(=O)COC(=O)CN2C(=O)c3ccccc3C2=O)c(=O)n(C)c1=O` as the molecule, how does the AC50 [1] read?
**A.** 3.66 µM [falling, partial curve, poor fit]

**Q.** With `Oc1ccc(Cl)cc1C=Nc1ccc(Br)cc1` as the molecule, how does the AC50 [1] read?
**A.** 0.282 µM [falling, full curve]

**Q.** For `COc1ccc(CNC(=O)C(c2ccc(C)o2)N(Cc2cccs2)C(=O)Cc2cccs2)cc1` (stereo unspecified), which AC50 [1] is on record?
**A.** 16.4 µM [falling, partial curve]

**Q.** With `COc1ccc(CCc2nnc(CCC(=O)NCc3cc(C(C)C)no3)o2)cc1` as the molecule, how does the AC50 [1] read?
**A.** 35.5 µM [rising, single point]

**Q.** For `CCOC(=O)COn1c(=O)c(-c2ccco2)[n+]([O-])c2ccccc21`, which AC50 [1] is on record?
**A.** 4.47 µM [falling, full curve, poor fit]

**Q.** For `C(=N\n1cnnc1)/c1cccnc1`, which AC50 [1] is on record?
**A.** 1.3 µM [rising, partial curve]

**Q.** With `O=C(OCC(=O)N1CCC(Cc2ccccc2)CC1)c1ccccc1O` as the molecule, how does the AC50 [1] read?
**A.** 23.1 µM [falling, partial curve, poor fit]

**Q.** Which AC50 [1] does the source give for `Cc1ccc(S(=O)(=O)NCCc2ccc(S(N)(=O)=O)cc2)cc1` here?
**A.** 6.51 µM [falling, single point]

**Q.** With `CCN1CCn2c3c(c4cc(C)ccc42)CCCC31` (stereo unspecified) as the molecule, how does the AC50 [1] read?
**A.** 35.5 µM [rising, partial curve, poor fit]

**Q.** With `O=C(CSc1nnc2n1CCCN2)c1ccccc1` as the molecule, how does the AC50 [1] read?
**A.** 25.1 µM [falling, single point]

**Q.** Which AC50 [1] does the source give for `Nc1nnc(SCC(=O)c2ccc3ccccc3c2)s1` here?
**A.** 0.0651 µM [rising, partial curve, poor fit]

**Q.** For `CCC1CN(C(=O)NCc2cccc(OC)c2)c2cc(Cl)ccc2O1` (stereo unspecified), which AC50 [1] is on record?
**A.** 35.5 µM [falling, single point]

**Q.** Which AC50 [1] does the source give for `c1ccc2c(c1)Cn1nc(Cc3nc4c(s3)CCCC4)nc1-2` here?
**A.** 15.8 µM [rising, partial curve]

**Q.** Which AC50 [1] does the source give for `COc1ccccc1CNC(=O)OCc1nccnc1C(=O)Nc1ccc(Br)cn1` here?
**A.** 2.51 µM [rising, full curve, poor fit]

**Q.** For `COc1ccc(Cl)cc1-n1c(C)cc(C(=O)OCC(=O)N2CC(=O)Nc3ccccc32)c1C`, which AC50 [1] is on record?
**A.** 20.6 µM [falling, single point]

**Q.** With `COc1ccc(NC2=Nc3ccccc3CC2)cc1` as the molecule, how does the AC50 [1] read?
**A.** 16.4 µM [falling, partial curve]

**Q.** For `O=C(Nc1ccccc1C(=O)O)c1cccc(S(=O)(=O)Nc2ccc(Br)cc2)c1`, which AC50 [1] is on record?
**A.** 12.6 µM [rising, partial curve, poor fit]

**Q.** Which AC50 [1] does the source give for `Cn1c2ccccc2c(=O)c2c(=O)n(Cc3ccco3)c(-c3ccc(Cl)cc3Cl)nc21` here?
**A.** 1.58 µM [falling, full curve]

**Q.** Which AC50 [1] does the source give for `CCOC(=O)C1CCN(C(=O)c2ccccc2NC(=O)c2ccc(Cl)cc2)CC1` here?
**A.** 4.11 µM [rising, full curve, poor fit]

**Q.** For `Cc1ccc(C(NC(=O)C2CCCCC2)c2c(O)ccc3ccccc23)cc1` (stereo unspecified), which AC50 [1] is on record?
**A.** 0.731 µM [rising, full curve, poor fit]

**Q.** For `COc1cccc(CN(C)C(=O)CCc2nnc(-c3ccsc3)o2)c1`, which AC50 [1] is on record?
**A.** 35.5 µM [falling, single point]

**Q.** For `CCOc1ncccc1C(=O)OCc1ccc(C(=O)OC)cc1`, which AC50 [1] is on record?
**A.** 16.4 µM [falling, single point]

**Q.** With `CC(C)Cn1c(SCC(=O)NC(=O)NC2CCCC2)nc2ccccc21` as the molecule, how does the AC50 [1] read?
**A.** 35.5 µM [falling, single point]

**Q.** Which AC50 [1] does the source give for `O=C(NCc1nnc(SCC(=O)N2CCCC2)o1)c1ccccc1F` here?
**A.** 8.2 µM [rising, partial curve, poor fit]

**Q.** Which AC50 [1] does the source give for `CCOC(=O)C1(C)/C(=N/Nc2ccccc2OC)C(=O)C(=O)N1c1ccccc1` (stereo unspecified) here?
**A.** 0.316 µM [falling, full curve, poor fit]

**Q.** With `CCN(CC)CCCNC(=O)c1c(O)c2cc(F)cc3c2n(c1=O)C(C)CC3` (stereo unspecified) as the molecule, how does the AC50 [1] read?
**A.** 10 µM [falling, partial curve, poor fit]

**Q.** With `CCCC(=O)Nc1nc2ccc(NC(=O)c3c(F)c(F)c(OC)c(F)c3F)cc2s1` as the molecule, how does the AC50 [2] read?
**A.** 7.08 µM [falling, partial curve, poor fit]

**Q.** Which AC50 [1] does the source give for `O=C(c1ccccc1)c1cc([N+](=O)[O-])ccc1N1CCOCC1` here?
**A.** 20.6 µM [rising, single point]

**Q.** And the AC50 [2]?
**A.** 16.4 µM [falling, single point]

**Q.** For `CC(C)OC(=O)CSc1nc2cc3c(cc2cc1C#N)OCO3`, which AC50 [1] is on record?
**A.** 0.411 µM [rising, full curve, poor fit]

**Q.** Which AC50 [1] does the source give for `COc1ccc(C(=O)/C=C/C(=O)N(Cc2ccc(F)cc2)C(C(=O)NC2CCCCC2)c2ccncc2)c(O)c1` (stereo unspecified) here?
**A.** 18.4 µM [falling, partial curve]

**Q.** Which AC50 [1] does the source give for `O=C(Nc1ccccc1F)N1CCc2ccccc2C1` here?
**A.** 7.94 µM [falling, partial curve]

**Q.** With `CCCCOc1ccc(C(=O)N/C(=C\c2ccc([N+](=O)[O-])cc2)C(=O)OCc2ccco2)cc1` as the molecule, how does the AC50 [1] read?
**A.** 32.6 µM [rising, single point]

**Q.** For `Cc1[nH]c2c(Br)cccc2c1[C@H]1[C@@H](CC#N)C1(C)C`, which AC50 [1] is on record?
**A.** 11.6 µM [falling, partial curve]

**Q.** Which AC50 [1] does the source give for `CCCNC(=O)CSCc1nc(-c2ccc(SC)cc2)oc1C` here?
**A.** 1 µM [rising, partial curve, poor fit]

**Q.** Which AC50 [1] does the source give for `Cn1cc([N+](=O)[O-])c(C(=O)N/N=C/c2cc3c(cc2Br)OCO3)n1` here?
**A.** 6.31 µM [rising, single point]

**Q.** Which AC50 [1] does the source give for `O=C(N1CCCC1)n1c(Cc2ccccc2)nc2ccccc21` here?
**A.** 0.58 µM [falling, full curve]

**Q.** For `CC(=O)c1c(C)[nH]c(C(=O)OCC(=O)N2CCN(S(=O)(=O)c3ccc(C)cc3)CC2)c1C`, which AC50 [1] is on record?
**A.** 0.291 µM [rising, full curve, poor fit]

**Q.** With `O=C(NC1CCN(C(=O)N2c3ccccc3Sc3ccccc32)CC1)c1ccccc1Cl` as the molecule, how does the AC50 [1] read?
**A.** 35.5 µM [falling, single point]

**Q.** For `C=CCO/N=C(/C)c1ccc(Oc2cnccn2)cc1`, which AC50 [1] is on record?
**A.** 12.6 µM [rising, single point]

**Q.** With `O=C1N(c2cccc3ccccc23)C(c2ccccc2)N2CCCN12` (stereo unspecified) as the molecule, how does the AC50 [1] read?
**A.** 9.2 µM [falling, partial curve, poor fit]

**Q.** With `COc1ccc(CCC(=O)Nc2cc3c4c(c2)CC(=O)N4CCC3)cc1` as the molecule, how does the AC50 [1] read?
**A.** 29.1 µM [rising, single point]

**Q.** For `O=C(O)CN(c1ccc2c(c1)OCCO2)S(=O)(=O)c1ccccc1`, which AC50 [1] is on record?
**A.** 0.116 µM [rising, full curve, poor fit]

**Q.** With `O=C(Cc1ccc(Br)cc1)N/N=C/c1ccc(-c2cccc(C(=O)O)c2)o1` as the molecule, how does the AC50 [1] read?
**A.** 14.1 µM [falling, single point]

**Q.** Which AC50 [1] does the source give for `O=C(NN=C1CCCC1)c1ccc(O)cc1` here?
**A.** 0.282 µM [falling, full curve]

**Q.** For `COc1ccc(/C=C/C2=NC(=C\N(C)C)/C(=O)O2)cc1`, which AC50 [1] is on record?
**A.** 0.501 µM [rising, full curve, poor fit]

**Q.** For `CO/N=C(/CNC(=O)c1ccc(Cl)cc1Cl)c1ccc(Cl)cc1`, which AC50 [1] is on record?
**A.** 35.5 µM [falling, single point]

**Q.** For `Cc1cc([N+](=O)[O-])cc2c1NC(=O)C2(O)N1CCOCC1` (stereo unspecified), which AC50 [1] is on record?
**A.** 25.1 µM [rising, single point]

**Q.** And the AC50 [2]?
**A.** 22.4 µM [falling, single point]

**Q.** With `Cc1[nH]n(-c2ccc(Cl)c(Cl)c2)c(=O)c1CCO` as the molecule, how does the AC50 [1] read?
**A.** 35.5 µM [falling, single point]

**Q.** Which AC50 [1] does the source give for `COc1ccc(N2CCN(C(=O)CSc3nnc(-c4cccnc4)n3-c3ccccc3)CC2)cc1` here?
**A.** 29.1 µM [rising, single point]

**Q.** Which AC50 [1] does the source give for `O=C(COc1ccc(/C=C\[N+](=O)[O-])cc1)N1CCOCC1` here?
**A.** 3.55 µM [falling, full curve]

**Q.** With `O=C(CC(c1ccccc1)c1cc(Br)ccc1O)N1CCCC1` (stereo unspecified) as the molecule, how does the AC50 [1] read?
**A.** 15.8 µM [falling, single point]

**Q.** With `CCOC(=O)C1=C(O)/C(=C/c2ccc(OCC(=O)O)c(OCC)c2)SC1=Nc1ccc(C)cc1` as the molecule, how does the AC50 [1] read?
**A.** 1.78 µM [rising, partial curve, poor fit]
